Values from PubChem BioAssay AID1508588 (Peter MacCallum Cancer Centre, 2020).

- Purpose: 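Which gene losses make BRAF-mutant melanoma cells more responsive to vemurafenib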 (primary screen)
- Cells: human WM266.4 melanoma cells (BRAF V600 mutant)
- Knock-down reagent: siRNA pool against human genes, 40 nM
- Timing: 96 h from transfection to read-out
- Challenge: vemurafenib 300 nM (about IC25), added 48 h after transfection, for 48 h; comparison arm got DMSO vehicle only
- Read-out: 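Cell gain (DAPI nuclei at end minus before drug, mean of two replicates) and medium lactate by absorbance per cell, both as ratio to non-targeting siRNA, also grouped into fold-change classes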
- Reading the numbers: cell gain with vemurafenib: higher = more cell gain than with non-targeting siRNA; lactate per cell with vemurafenib: higher = more lactate made per cell
- Active means: 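a knock-down counts as enhancing when its fold-change classes with vehicle and with vemurafenib, taken together, show a stronger drug effect on cell gain or lactate per cell; exact class pairs not stated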
- Meaning of the calls: active = enhances vemurafenib effect; inactive = no enhancement seen
The whole screen tested about 18,000 reagents; this is an unselected part. 790 of them (4.4%) count as active. 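Calls rest on a combination of fold-change classes in drug and vehicle arms, not all shown here.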

After knock-down of TK1 (GeneID 7083), the screen gave cell gain with vemurafenib 0.68; lactate per cell with vemurafenib 0.5; inactive. With knock-down of GDF11 (GeneID 10220) the results were cell gain with vemurafenib 0.86; lactate per cell with vemurafenib 0.9; inactive. NPTX1 (GeneID 4884) scored cell gain with vemurafenib 0.59; lactate per cell with vemurafenib 0.97; inactive. With knock-down of FBH1 (GeneID 84893), the screen gave cell gain with vemurafenib 1.1; lactate per cell with vemurafenib 0.92; inactive. Against KLF9 (GeneID 687) the deposit lists cell gain with vemurafenib 0.35; lactate per cell with vemurafenib 0.72; inactive. Against RPSA (GeneID 3921), the values are cell gain with vemurafenib 0.01; lactate per cell with vemurafenib 2.92; inactive.

ENGASE (GeneID 64772) scored cell gain with vemurafenib 0.22; lactate per cell with vemurafenib 0.82; inactive. SCUBE3 (GeneID 222663) gave cell gain with vemurafenib 0.85; lactate per cell with vemurafenib 0.69; inactive. GAP43 (GeneID 2596) showed cell gain with vemurafenib 0.71; lactate per cell with vemurafenib 0.25; inactive. Knock-down of BAG1 (GeneID 573) came out at: cell gain with vemurafenib 0.47; lactate per cell with vemurafenib 2.62; inactive. Depletion of OR4K14 (GeneID 122740) gave: cell gain with vemurafenib 0.25; lactate per cell with vemurafenib 0.85; inactive. With knock-down of EIF4G3 (GeneID 8672) the results were cell gain with vemurafenib 0.56; lactate per cell with vemurafenib 1.05; inactive.

After knock-down of ANKS1A (GeneID 23294), the screen gave cell gain with vemurafenib 0.3; lactate per cell with vemurafenib 1.05; inactive. Knock-down of PNISR (GeneID 25957) gave: cell gain with vemurafenib 0.6; lactate per cell with vemurafenib 2.05; inactive. Silencing of CRIP2 (GeneID 1397) gave: cell gain with vemurafenib 0.56; lactate per cell with vemurafenib 0.42; active. Depletion of SVBP (GeneID 374969) resulted in: cell gain with vemurafenib 0.87; lactate per cell with vemurafenib 0.66; inactive. Knock-down of PYCR1 (GeneID 5831) came out at: cell gain with vemurafenib 0.55; lactate per cell with vemurafenib 1.88; inactive. PIK3R2 (GeneID 5296) showed cell gain with vemurafenib 0.26; lactate per cell with vemurafenib 1.35; inactive.

Silencing of NECTIN1 (GeneID 5818) gave: cell gain with vemurafenib 0.9; lactate per cell with vemurafenib 0.94; inactive. Silencing of STAU1 (GeneID 6780) resulted in: cell gain with vemurafenib 0.41; lactate per cell with vemurafenib 0.88; inactive. Knock-down of ROM1 (GeneID 6094) resulted in: cell gain with vemurafenib 0.62; lactate per cell with vemurafenib 0.36; inactive. For MMP13 (GeneID 4322) the deposit lists cell gain with vemurafenib 0.54; lactate per cell with vemurafenib 1.08; inactive. QRFP (GeneID 347148) gave cell gain with vemurafenib 0.61; lactate per cell with vemurafenib 1.66; inactive. Depletion of TTC5 (GeneID 91875) gave: cell gain with vemurafenib 0.39; lactate per cell with vemurafenib 2.06; inactive.

After knock-down of LOC642678 (retired record) (GeneID 642678), the screen gave cell gain with vemurafenib 1.02; lactate per cell with vemurafenib 0.51; inactive. Against LARP4B (GeneID 23185) the deposit lists cell gain with vemurafenib 0.57; lactate per cell with vemurafenib 0.47; inactive. After knock-down of FBP1 (GeneID 2203), the screen gave cell gain with vemurafenib 0.76; lactate per cell with vemurafenib 0.34; inactive.

Hits, among the entries above:
CRIP2 (GeneID 1397) → cell gain with vemurafenib: 0.56; lactate per cell with vemurafenib: 0.42; call: active
